# No constants are given. Whether binding was seen depends on the method and setting. Binding seen in cells or lysates may run through a third protein. A result given as binding can be weak or reduced; the word gives no strength.
# Target: T1, Dishevelled 2, wild type (WT-Dvl2) (UniProt P51142)
# T1 sequence: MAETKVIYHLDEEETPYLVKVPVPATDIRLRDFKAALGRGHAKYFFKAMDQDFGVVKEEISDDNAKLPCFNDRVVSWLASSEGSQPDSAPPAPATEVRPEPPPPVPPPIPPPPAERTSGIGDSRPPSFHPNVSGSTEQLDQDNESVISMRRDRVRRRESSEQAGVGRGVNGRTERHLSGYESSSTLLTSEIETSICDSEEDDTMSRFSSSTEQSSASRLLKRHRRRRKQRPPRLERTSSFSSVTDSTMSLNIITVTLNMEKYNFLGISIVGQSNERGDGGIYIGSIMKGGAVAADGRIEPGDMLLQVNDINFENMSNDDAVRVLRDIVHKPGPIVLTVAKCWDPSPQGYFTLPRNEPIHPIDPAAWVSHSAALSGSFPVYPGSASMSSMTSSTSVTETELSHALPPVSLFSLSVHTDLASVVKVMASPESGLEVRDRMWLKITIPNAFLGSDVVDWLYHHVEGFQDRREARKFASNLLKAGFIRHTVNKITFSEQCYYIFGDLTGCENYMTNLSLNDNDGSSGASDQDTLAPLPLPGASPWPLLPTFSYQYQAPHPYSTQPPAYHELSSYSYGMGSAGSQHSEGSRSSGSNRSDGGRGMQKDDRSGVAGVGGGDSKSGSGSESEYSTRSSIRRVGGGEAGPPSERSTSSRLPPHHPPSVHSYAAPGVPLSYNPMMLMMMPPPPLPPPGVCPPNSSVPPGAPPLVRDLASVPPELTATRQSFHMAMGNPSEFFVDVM
# Test: co-IP
substance,measurement,value
Protein Kinase C delta (PKCδ) (enzyme),binding,binds

# Source: article doi:10.1101/2025.11.12.688108
